# The campaign covered roughly 580,000 compounds. About 6,100 (1.1%) were called active. Inconclusive results, whose numbers are uncertain, are shown with a selection of clear calls. Calls come from the whole dose curve; as a rule, active = well fitted inhibition curve with a large enough effect; inconclusive = small, poorly fitted or top-dose-only effect, or another doubt; inactive = no such curve, though single readings can be large or run the other way. Where the call is inconclusive, the potency comes from a doubtful curve fit.
# Sequences of proteins named here, by UniProt entry; tags and fusion partners are left off. A change or cut given only in a name is not applied to a line headed by its entry.
# UniProt P18054: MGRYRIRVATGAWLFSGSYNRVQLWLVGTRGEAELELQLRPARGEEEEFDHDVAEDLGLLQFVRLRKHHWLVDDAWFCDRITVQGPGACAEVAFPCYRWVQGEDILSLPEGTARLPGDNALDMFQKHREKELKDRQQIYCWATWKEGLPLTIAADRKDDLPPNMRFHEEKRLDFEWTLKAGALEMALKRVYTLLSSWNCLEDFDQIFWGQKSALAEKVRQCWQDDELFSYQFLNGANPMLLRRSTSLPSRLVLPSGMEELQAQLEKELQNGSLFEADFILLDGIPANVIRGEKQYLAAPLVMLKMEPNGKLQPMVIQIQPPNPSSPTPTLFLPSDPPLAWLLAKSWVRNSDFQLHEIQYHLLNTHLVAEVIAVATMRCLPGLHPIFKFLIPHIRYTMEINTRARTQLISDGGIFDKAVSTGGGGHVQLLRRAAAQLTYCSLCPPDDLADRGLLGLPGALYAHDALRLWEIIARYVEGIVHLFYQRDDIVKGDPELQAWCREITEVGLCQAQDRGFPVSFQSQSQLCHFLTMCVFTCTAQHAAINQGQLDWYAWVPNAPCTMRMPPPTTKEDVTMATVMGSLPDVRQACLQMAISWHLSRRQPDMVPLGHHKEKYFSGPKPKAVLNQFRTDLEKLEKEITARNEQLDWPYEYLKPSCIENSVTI
# Molecular target: Polyunsaturated fatty acid lipoxygenase ALOX12 (Homo sapiens) (UniProt P18054)
# Test: Primary qHTS assay for inhibitors of human arachidonate 12S-lipoxygenase (ALOX12): Round 2
# Conditions: purified 12hLO, xylenol orange hydroperoxide absorbance; activity change, negative = inhibition: at 108 µM (top of the series) unless noted
# Method in brief: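 Purified human 12hLO (150 nM final) in 25 mM Hepes, 0.01% Triton X-100, pH 7.0 was preincubated 15 min at room temperature with compound. Then 40 uM arachidonic acid was added, 30 min. Hydroperoxide was read by Fe-XO absorbance ratio 573/405 nm.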
# % is set by controls: 0 for no effect and ±100 for the full control effect; potency is the fitted concentration of half-maximal effect.
Structure (SMILES),Potency,"activity change, negative = inhibition"
CN1CCN(C(=O)C2CCN(c3nc(Cl)nc4nc[nH]c34)CC2)CC1,inactive,
Cc1ccc(CSCC(=O)Nc2cc(S(=O)(=O)N3CCOCC3)ccc2OCC(F)(F)F)cc1,inactive,
COCCCNCCOCCOc1ccccc1-c1ccccc1,inactive,
O=C(C1=C[C@H](c2ccc(Br)cc2)C[C@H](OCc2ccc(CO)cc2)O1)N1CCN(Cc2ccc3c(c2)OCO3)CC1,inactive,
Cc1ccc(CNC(=O)c2ccc3c(c2)CNCCO3)cc1,inactive,
CS(=O)(=O)N(Cc1ccccc1Cl)c1ccc(C(=O)N2CCCC2)cc1,"inconclusive: 158 µM [inhibitor, single point]",
CCCCCCc1cc2cc(C(C)=O)c(=O)oc2cc1O,"inconclusive: 44.7 µM [inhibitor, partial curve, poor fit]",
O=C(N[C@H](Cc1ccncc1)C1CC(O)C1)c1ccc(CO)o1 (stereo not given in full),inactive,
CCCn1nnnc1SCC(=O)NCc1cccs1,"inconclusive: 0.0794 µM [inhibitor, full curve, poor fit]",
O[C@@H]1[C@@H](Cn2cc(-c3cccnc3)nn2)C[C@@H](NCc2ccc(F)cc2)[C@@H]1O,"inconclusive: 11.2 µM [inhibitor, full curve]",
CCNC(=O)N1CC[C@@H](CC(=O)O)[C@@H](CC2=NCCc3ccc(C)cc32)C1,inactive,
O=C(C1COc2ccccc2O1)N1CCN(c2nc3ccc(F)cc3s2)CC1 (stereo not given),"inconclusive: 112 µM [inhibitor, partial curve, poor fit]",
CSC1=NS(=O)(=O)c2c(C)nn(C)c2S1,"inconclusive: 100 µM [inhibitor, single point]",
O=C(O)CCCN1C(=O)C(=O)/C(=C(/O)c2ccc(Cl)cc2)C1c1ccccc1 (stereo not given),inactive,
Cc1noc(C)c1C(=O)OCC(=O)NC1CC1,"inconclusive: 2.24 µM [inhibitor, full curve, poor fit]",
CCOc1ccc(CNC(=O)CSc2cc(=O)n(CC)c3ccccc23)cc1,inactive,
O=S(=O)(c1ccccc1)N1CCC2(CCN(c3ccc(-c4ccccc4)cc3)CC2)CC1,"inconclusive: 28.2 µM [inhibitor, single point]",
COc1ccc(-n2[nH]c(-c3ccc(OC)c(OC)c3)cc2=O)cc1,inactive,
Cc1ccc(S(=O)(=O)NC[C@H]2OC[C@@H](NC3CCNCC3)[C@@H]2O)cc1,"inconclusive: 5.01 µM [inhibitor, full curve, poor fit]",
COc1ccc(S(=O)(=O)c2c(C)c(C)n(C(C)C)c2NC(=O)C2CC2)cc1,"inconclusive: 100 µM [inhibitor, single point]",
COc1ccc(C2NC(=O)C(C#N)=C(S)N2c2cccc(C)c2)cc1OC (stereo not given),"inconclusive: 8.91 µM [inhibitor, full curve, poor fit]",
CCN(CC(=O)Nc1ccccc1C(F)(F)F)Cc1coc(-c2ccc(C)cc2C)n1,"inconclusive: 0.794 µM [inhibitor, full curve]",
CCOC(=O)c1sc(Nc2cccc(C)c2)nc1C,"inconclusive: 6.31 µM [inhibitor, full curve, poor fit]",
CCn1c(CN2CCN(C(=O)c3ccco3)CC2)nc2c1c(=O)n(C)c(=O)n2C,"inconclusive: 0.708 µM [inhibitor, full curve, poor fit]",

# 2 consecutive records out of the list so far, quoted:
Structure (SMILES),Potency,"activity change, negative = inhibition"
CCNC(=O)N1CC[C@@H](CC(=O)O)[C@@H](CC2=NCCc3ccc(C)cc32)C1,inactive,
O=C(C1COc2ccccc2O1)N1CCN(c2nc3ccc(F)cc3s2)CC1 (stereo not given),"inconclusive: 112 µM [inhibitor, partial curve, poor fit]",

# (continued)

Structure (SMILES),Potency,"activity change, negative = inhibition"
N#Cc1nc(Cc2cccc3ccccc23)oc1NCCN1CCCCC1,"inconclusive: 39.8 µM [inhibitor, partial curve, poor fit]",
CCN(CC)c1nc(N)c(C#N)c(CC#N)c1C#N,inactive,
O=C(O)c1ccc(CSc2nnc(-c3ccncc3)n2-c2ccc(Br)cc2)cc1,inactive,
Oc1[nH]c2ccccc2c1N=Nc1nc(Nc2ccccc2)nc(N2CCOCC2)n1,inactive,
C[S+](=O)([O-])N1CCCC2(C1)C(=NC1CCCCC1)NC(=O)N2c1cccnc1 (stereo not given),inactive,
COc1ccc2nc(C)cc(SCC(=O)N/N=C/c3cccc4ccccc34)c2c1,inactive,
COc1ccc(-c2cc(C(=O)NCC(C)C)c3ccccc3n2)cc1,"inconclusive: 39.8 µM [inhibitor, partial curve, poor fit]",
Cc1nc2cnc(Nc3ccccc3)nc2n(C)c1=O,"inconclusive: 31.6 µM [inhibitor, single point]",
CC(=O)c1ccc(-c2ccc3c4c(ccc3c2)OC(CNC(=O)C(C)N2CCOCC2)C4)s1 (stereo not given),"inconclusive: 100 µM [inhibitor, single point]",
CC(C)CCCC1CN(C(=O)c2cn(CCCN)nn2)CCO1 (stereo not given),inactive,
NC(=O)c1cccc(C(=O)Nc2cccc3cccnc23)c1,inactive,
N#Cc1cccc(-c2nc(NCc3cccs3)c3ccccc3n2)c1,"inconclusive: 79.4 µM [inhibitor, single point]",
CCOc1ccc(C(=O)N2CCN=C2SC)cc1OCC,"inconclusive: 56.2 µM [inhibitor, single point]",
CCc1c(C)sc(NC(=O)Cc2ccccc2)c1C#N,"inconclusive: 22.4 µM [inhibitor, full curve, poor fit]",
CCNc1nc(NCC)n2c(SCC(=O)Nc3ccccc3F)nnc2n1,inactive,
CCn1c(CN(c2ccccc2)S(C)(=O)=O)nnc1SCC(=O)c1cc(C)n(C2CC2)c1C,inactive,
CC(C)c1ccc(C(=O)NCCCN2CCN(CCCNC(=O)c3ccc(C(C)C)cc3)CC2)cc1,"inconclusive: 50.1 µM [inhibitor, partial curve, poor fit]",
COc1ccc(-c2ccc(C(=O)N(C)Cc3csc(C)n3)c(N3CCC(N4CCc5ccccc5C4)CC3)n2)cc1,"inconclusive: 112 µM [inhibitor, single point]",
NCCC1CN(Cc2cc3ccccc3s2)CCO1 (stereo not given),"inconclusive: 8.91 µM [inhibitor, full curve]",
CN(Cc1c(C(=O)N/N=C/c2ccccc2)nnn1-c1nonc1N)C1CCCCC1,inactive,
COc1ccc(CN(C)C[C@@H]2OCCCC[C@H](C)Oc3ccc(NC(=O)Nc4ccc(F)cc4)cc3C(=O)N([C@H](C)CO)C[C@H]2C)cc1,"inconclusive: 39.8 µM [inhibitor, partial curve, poor fit]",
CCCCn1c(N)c(N(CC)C(=O)c2cc(C)cc(C)c2)c(=O)[nH]c1=O,inactive,
O=C(Cc1ccc(Cl)cc1)NC1CC1,"inconclusive: 20 µM [inhibitor, partial curve, poor fit]",
O=C(NCCCc1ccccc1)c1ccccc1O,"inconclusive: 70.8 µM [inhibitor, partial curve, poor fit]",

Structure (SMILES),Potency,"activity change, negative = inhibition"
C=Cc1ccc(Cn2c(C(=O)O)c(CNC3CCCC3)c3ccc(C)cc32)cc1,"inconclusive: 79.4 µM [inhibitor, partial curve, poor fit]",
CC(C)NC(=S)NCc1cccc(Cl)c1,"inconclusive: 79.4 µM [inhibitor, partial curve, poor fit]",
C[C@H](CO)N1C[C@H](C)[C@@H](CN(C)S(=O)(=O)c2ccc(-c3ccccc3)cc2)OCc2cn(nn2)CCCC1=O,"inconclusive: 3.55 µM [inhibitor, full curve, poor fit]",
CN(C)N1C(N)=C(C#N)C(c2ccccc2)C2=C1CCCC2=O (stereo not given),"inconclusive: 112 µM [inhibitor, single point]",
O=C(c1ccc(C(F)(F)F)cc1)N1CCC2(C1)C(=NC1CCCCC1)NC(=O)N2c1cc(F)cc(F)c1 (stereo not given),,inconclusive: -31.6% [inhibitor]
COc1cccc(CN(C)[C@H]2C[C@H]3c4[nH]c5ccccc5c4CCN3C[C@H]2[C@H](C)O)c1OC,inactive,
COc1ccc(-n2ccn(CC(=O)Nc3c(C)cc(C)cc3C)c2=O)cc1,inactive,
CCOC(=O)c1cnn2c(SC)ncnc12,"inconclusive: 39.8 µM [inhibitor, partial curve, poor fit]",
Cc1cccc(/C=N/NC(=O)Cn2nccc2C)n1,inactive,
COC(=O)C1SCC2C(=O)N(Cc3ccccc3)CC(=O)N21 (stereo not given),"inconclusive: 25.1 µM [inhibitor, single point]",
CC(=Nc1ccc(Cl)cc1N)c1c(O)cc(C)oc1=O,active: 35.5 µM,
N#CC1(Nc2ccc(-c3ccc(Cl)cc3)cc2)CCCC1,"inconclusive: 50.1 µM [inhibitor, partial curve, poor fit]",
O=C(C[C@@H]1CCNC[C@@H]1Cc1cc(-c2ccccc2)on1)NCc1cccnc1,"inconclusive: 14.1 µM [inhibitor, full curve, poor fit]",
CC(C)NC(=O)NC[C@H]1OC[C@@H](NCc2ccccc2O)[C@@H]1O,"inconclusive: 3.98 µM [inhibitor, full curve, poor fit]",
COc1ccc(-c2sc3ccc(OC)cc3c2-c2ccc(OC)c(F)c2)cc1,inactive,
CCOC(=O)c1c(C)oc(/N=C/c2ccccc2O)c1C#N,inactive,
CCCCn1c(N)c(N(CC(C)C)C(=O)c2cccc(OCc3ccccc3)c2)c(=O)[nH]c1=O,"inconclusive: 12.6 µM [inhibitor, partial curve, poor fit]",
CCN(CCNC(=O)C1CCCN(S(=O)(=O)CC)C1)c1ccccc1 (stereo not given),inactive,
CSc1ccc(NC(=O)N2CCc3nc4cc(-c5ccccc5)[nH]n4c(=O)c3C2)cc1,inactive,
COc1ccc(CCNC(=O)Cc2c(C)c3ccc(OC)c(C)c3oc2=O)cc1,inactive,
CC1CN(C2CCN(S(=O)(=O)c3ccccc3)CC2)CC(C)O1 (stereo not given),"inconclusive: 1.58 µM [inhibitor, full curve, poor fit]",
CCCN(CCC)CC(O)Cn1cc(/C=C/C(=O)c2ccc(C)cc2)c2ccccc21 (stereo not given),"inconclusive: 50.1 µM [inhibitor, partial curve, poor fit]",

# Reference: PubChem BioAssay AID1671190 (National Center for Advancing Translational Sciences (NCATS), 2021)
